Values of other authors, collected in patent publication US7682636B2 (Metaproteomics, LLC, priority 2001, dated 2010).
At least one compound was matched to its structure with a doubt left.

Key:
COX-2 gene transcription = conditions: TNFalpha stimulation, MC3T3-E1 cells

## CC(C)=CCC1C(=O)C(C(=O)CC(C)C)=C(O)C(O)(CC=C(C)C)C1=O (centres unmarked) [humulone]
COX-2 gene transcription
  COX-2 gene transcription: inhibition of COX-2 gene transcription
Bone resorption
  bone resorption: inhibitor of bone resorption
